These are yes or no findings as the source states them, for the method shown. In cells and extracts the contact can be indirect. Some results given as binding are weak or reduced against the parent protein; the word gives no strength.
What was measured:
[1] = target: CtBP2-Gluc-N / CtBP2-Gluc-C (CtBP-Gluc-PCA reporter) (human) (UniProt P56545); test: split reporter; Gluc-PCA in 293 cells co-transfected with the Gluc-N and Gluc-C fusions, luminance read; MTOB treatment gave a dose-dependent reduction of the signal
[2] = target: CtBP2-W324G EGFP-PCA reporter (human) (UniProt P56545); test: split reporter; EGFP-PCA: CtBP fused with the EGFP N-terminus or C-terminus, EGFP signal imaged in live cells; cell line of Fig. 1H not stated; CtBP2 reporter also in SKOV3 cells treated with 2-DG, 3-BP, FK866 or 30 uM cisplatin (signal reduced) or metformin (signal increased)

binding [1] | binding [2] | Substance
binds weakly | – | CtBP2-Gluc-N / CtBP2-Gluc-C (CtBP-Gluc-PCA reporter) (from UniProt P56545 1-445)
– | no binding | CtBP2-W324G EGFP-PCA reporter (from UniProt P56545 1-445)

— publication PMC10158025
